Results from the supplement of paper PMC4604168 (melanoma cell lines).
The other results are listed elsewhere or left out. Many values rest on one well or one pass, so single values are uncertain.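 The apoptosis fraction was the count of cleaved-PARP antibody-stained nuclei relative to all DNA-stained nuclei, imaged in 1,536-well plates. Screening doses were set so most cells survived, and baseline and induced cleaved-PARP levels vary greatly across cell lines.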

Experiments:
Experiment in all cases: cleaved PARP positive nuclei fraction relative to DMSO control; melanoma cells; higher = more apoptosis
Conditions in all cases: library dose: low library concentration; 72 h
[1] = test system: CBRC034 (line from a melanoma biopsy)
[2] = test system: COLO792
[3] = test system: COLO800
[4] = test system: COLO829
[5] = test system: G361
[6] = test system: IPC-298
[7] = test system: IST-MEL1
[8] = test system: LB2518-MEL
[9] = test system: LOXIMVI
[10] = test system: MEL-HO

Compound | cleaved PARP positive nuclei fraction [1] [%] | cleaved PARP positive nuclei fraction [2] [%] | cleaved PARP positive nuclei fraction [3] [%] | cleaved PARP positive nuclei fraction [4] [%] | cleaved PARP positive nuclei fraction [5] [%] | cleaved PARP positive nuclei fraction [6] [%] | cleaved PARP positive nuclei fraction [7] [%] | cleaved PARP positive nuclei fraction [8] [%] | cleaved PARP positive nuclei fraction [9] [%] | cleaved PARP positive nuclei fraction [10] [%]
O=C(O)c1ccc2c(c1)nc(Nc1cccc(Cl)c1)c1ccncc12 + C[As](C)SC[C@H](NC(=O)CC[C@H](N)C(=O)O)C(=O)NCC(=O)O [Darinaparsin] (first compound 0.4 µM, partner dose 0.4 µM) | 150 | 51.7 | 171 | 80.1 | 36.1 | 47.7 | 87.4 | 95.9 | 107 | 45.7
CN1CCN(c2ccc3nc(-c4c(N)c5c(F)cccc5[nH]c4=O)[nH]c3c2)CC1 [Dovitinib] + C[As](C)SC[C@H](NC(=O)CC[C@H](N)C(=O)O)C(=O)NCC(=O)O [Darinaparsin] (first compound 0.1 µM, partner dose 0.4 µM) | 66.2 | 123 | 137 | 121 | 139 | 41.6 | 88.2 | 147 | 97.6 | 88.2
Cn1cnc2c(F)c(Nc3ccc(Br)cc3Cl)c(C(=O)NOCCO)cc21 [selumetinib] + C[C@]12O[C@H](C[C@]1(O)CO)n1c3ccccc3c3c4c(c5c6ccccc6n2c5c31)CNC4=O [Lestaurtinib] (first compound 0.015 µM, partner dose 0.004 µM) | 87.9 | 60.7 | 74.4 | 108 | 233 | 306 | 132 | 147 | 178 | 103
C[C@]12O[C@H](C[C@]1(O)CO)n1c3ccccc3c3c4c(c5c6ccccc6n2c5c31)CNC4=O [Lestaurtinib] + CN1CCN(c2ccc3nc(-c4c(N)c5c(F)cccc5[nH]c4=O)[nH]c3c2)CC1 [Dovitinib] (first compound 0.004 µM, partner dose 0.1 µM) | 46.6 | 47.2 | 62.1 | 107 | 80.8 | 92.9 | 66 | 86.4 | 65.2 | 140
Cn1sc(=O)n(Cc2ccccc2)c1=O + N.N.[Cl][Pt][Cl] [cisplatin] (first compound 0.4 µM, partner dose 1.6 µM) | 59.2 | 61 | 90.4 | 91.6 | 67.4 | 63.2 | 128 | 106 | 114 | 58
Cn1cc(C2=C(c3cn(C4CCN(Cc5ccccn5)CC4)c4ccccc34)C(=O)NC2=O)c2ccccc21 [Enzastaurin] + CCCS(=O)(=O)Nc1ccc(F)c(C(=O)c2c[nH]c3ncc(Cl)cc23)c1F [PLX4720] (first compound 0.8 µM, partner dose 0.08 µM) | 150 | 94.1 | 92.2 | 33.6 | 150 | 85.1 | 257 | 106 | 131 | 80.1
CCCCCCCCc1ccc(CCC(N)(CO)CO)cc1 [fingolimod] + C[As](C)SC[C@H](NC(=O)CC[C@H](N)C(=O)O)C(=O)NCC(=O)O [Darinaparsin] (first compound 2 µM, partner dose 0.4 µM) | 170 | 58.2 | 129 | 86.4 | 100 | 96 | 62.1 | 192 | 184 | 103
Cn1cc(C2=C(c3cn(C4CCN(Cc5ccccn5)CC4)c4ccccc34)C(=O)NC2=O)c2ccccc21 [Enzastaurin] + NC(=O)c1ccc(N(C(N)=O)c2c(F)cccc2F)nc1-c1ccc(F)cc1F [VX702] (first compound 0.8 µM, partner dose 0.4 µM) | 62.9 | 36.1 | 98 | 48.3 | 93.2 | 121 | 54.1 | 152 | 171 | 107
CN(c1ncccc1CNc1nc(Nc2ccc3c(c2)CC(=O)N3)ncc1C(F)(F)F)S(C)(=O)=O + C[As](C)SC[C@H](NC(=O)CC[C@H](N)C(=O)O)C(=O)NCC(=O)O [Darinaparsin] (first compound 0.08 µM, partner dose 0.4 µM) | 110 | 140 | 133 | 132 | 62.5 | 126 | 127 | 103 | 175 | 62.5
NC1(c2ccc(-c3nc4ccn5c(=O)[nH]nc5c4cc3-c3ccccc3)cc2)CCC1 + C[As](C)SC[C@H](NC(=O)CC[C@H](N)C(=O)O)C(=O)NCC(=O)O [Darinaparsin] (first compound 0.4 µM, partner dose 0.4 µM) | 143 | 157 | 87.8 | 63.2 | 125 | 87.5 | 63.6 | 182 | 93.6 | 60.4
C[C@]12O[C@H](C[C@]1(O)CO)n1c3ccccc3c3c4c(c5c6ccccc6n2c5c31)CNC4=O [Lestaurtinib] + C#Cc1cccc(Nc2ncnc3cc(OCCOC)c(OCCOC)cc23)c1 [erlotinib] (first compound 0.004 µM, partner dose 0.8 µM) | 70.2 | 96.2 | 53.7 | 107 | 67.8 | 54.1 | 63.1 | 133 | 37.8 | 106
C#Cc1cccc(Nc2ncnc3cc(OCCOC)c(OCCOC)cc23)c1 [erlotinib] + C[As](C)SC[C@H](NC(=O)CC[C@H](N)C(=O)O)C(=O)NCC(=O)O [Darinaparsin] (first compound 0.8 µM, partner dose 0.4 µM) | 63.5 | 250 | 165 | 107 | 113 | 94.4 | 90.5 | 128 | 99.6 | 72.2
Cc1cc(Nc2cc(N3CCN(C)CC3)nc(Sc3ccc(NC(=O)C4CC4)cc3)n2)n[nH]1 [Tozasertib] + N.N.[Cl][Pt][Cl] [cisplatin] (first compound 0.006 µM, partner dose 1.6 µM) | 84.4 | 159 | 90.6 | 145 | 71.2 | 125 | 48.6 | 114 | 281 | 132
Cn1cc(C2=C(c3cn(C4CCN(Cc5ccccn5)CC4)c4ccccc34)C(=O)NC2=O)c2ccccc21 [Enzastaurin] + Cc1cc(Nc2cc(N3CCN(C)CC3)nc(/C=C/c3ccccc3)n2)n[nH]1 [ENMD2076] (first compound 0.8 µM, partner dose 0.04 µM) | 125 | 48.8 | 114 | 127 | 65.7 | 86.8 | 29.4 | 224 | 122 | 38.4
N#CC[C@H](C1CCCC1)n1cc(-c2ncnc3[nH]ccc23)cn1 [ruxolitinib] + N.N.[Cl][Pt][Cl] [cisplatin] (first compound 1 µM, partner dose 1.6 µM) | 67 | 80.6 | 82.3 | 128 | 154 | 43.4 | 35.2 | 98.9 | 59.9 | 54.5
CC(=O)O[C@@]12CO[C@@H]1C[C@H](O)[C@@]1(C)C(=O)[C@H](O)C3=C(C)[C@@H](OC(=O)[C@H](O)[C@@H](NC(=O)OC(C)(C)C)c4ccccc4)C[C@@](O)([C@@H](OC(=O)c4ccccc4)[C@H]21)C3(C)C [Docetaxel] + N.N.[Cl][Pt][Cl] [cisplatin] (first compound 0.0001 µM, partner dose 1.6 µM) | 55.6 | 419 | 116 | 217 | 530 | 61.3 | 152 | 259 | 149 | 186
C[C@]1(O)C[C@@H](c2nc(-c3ccc4ccc(-c5ccccc5)nc4c3)c3c(N)nccn32)C1 + C[As](C)SC[C@H](NC(=O)CC[C@H](N)C(=O)O)C(=O)NCC(=O)O [Darinaparsin] (first compound 0.4 µM, partner dose 0.4 µM) | 65.9 | 62.2 | 109 | 87.9 | 68.3 | 187 | 83.9 | 59.1 | 63.5 | 83.2
C[C@]12O[C@H](C[C@]1(O)CO)n1c3ccccc3c3c4c(c5c6ccccc6n2c5c31)CNC4=O [Lestaurtinib] + C=C(c1ccc(C(=O)O)cc1)c1cc2c(cc1C)C(C)(C)CCC2(C)C [Bexarotene] (first compound 0.004 µM, partner dose 2 µM) | 166 | 114 | 43.6 | 45.9 | 79.7 | 82.8 | 86.4 | 50.7 | 115 | 85.3
CS(=O)(=O)c1ccc(C(=O)Nc2ccc(Cl)c(-c3ccccn3)c2)c(Cl)c1 [vismodegib] + C[As](C)SC[C@H](NC(=O)CC[C@H](N)C(=O)O)C(=O)NCC(=O)O [Darinaparsin] (first compound 1 µM, partner dose 0.4 µM) | 77.5 | 133 | 46.7 | 77.4 | 67.5 | 131 | 64.1 | 111 | 73.3 | 31.7
COc1cc([C@@H]2c3cc4c(cc3[C@@H](O[C@@H]3O[C@@H]5CO[C@@H](C)O[C@H]5[C@H](O)[C@H]3O)[C@H]3COC(=O)[C@H]23)OCO4)cc(OC)c1O [etoposide] + Cn1cc(C2=C(c3cn(C4CCN(Cc5ccccn5)CC4)c4ccccc34)C(=O)NC2=O)c2ccccc21 [Enzastaurin] (first compound 0.02 µM, partner dose 0.8 µM) | 124 | 44.5 | 144 | 95.1 | 39.9 | 43.4 | 159 | 46 | 277 | 335
CCN(CC)CCNC(=O)c1c(C)[nH]c(/C=C2\C(=O)Nc3ccc(F)cc32)c1C [sunitinib] + N.N.[Cl][Pt][Cl] [cisplatin] (first compound 0.4 µM, partner dose 1.6 µM) | 33.3 | 45.4 | 89.9 | 100 | 109 | 86.9 | 39.4 | 81.8 | 189 | 75.4
C[C@]12O[C@H](C[C@]1(O)CO)n1c3ccccc3c3c4c(c5c6ccccc6n2c5c31)CNC4=O [Lestaurtinib] + OCc1c[nH]c2ccccc12 [Indole-3-carbinol] (first compound 0.004 µM, partner dose 0.8 µM) | 64.8 | 152 | 127 | 95.3 | 33.5 | 84.9 | 59.3 | 110 | 30.6 | 121

Pulled one by one from the list above, 2 records:
Compound | cleaved PARP positive nuclei fraction [1] [%] | cleaved PARP positive nuclei fraction [2] [%] | cleaved PARP positive nuclei fraction [3] [%] | cleaved PARP positive nuclei fraction [4] [%] | cleaved PARP positive nuclei fraction [5] [%] | cleaved PARP positive nuclei fraction [6] [%] | cleaved PARP positive nuclei fraction [7] [%] | cleaved PARP positive nuclei fraction [8] [%] | cleaved PARP positive nuclei fraction [9] [%] | cleaved PARP positive nuclei fraction [10] [%]
C[C@]12O[C@H](C[C@]1(O)CO)n1c3ccccc3c3c4c(c5c6ccccc6n2c5c31)CNC4=O [Lestaurtinib] + C#Cc1cccc(Nc2ncnc3cc(OCCOC)c(OCCOC)cc23)c1 [erlotinib] (first compound 0.004 µM, partner dose 0.8 µM) | 70.2 | 96.2 | 53.7 | 107 | 67.8 | 54.1 | 63.1 | 133 | 37.8 | 106
CN(c1ncccc1CNc1nc(Nc2ccc3c(c2)CC(=O)N3)ncc1C(F)(F)F)S(C)(=O)=O + C[As](C)SC[C@H](NC(=O)CC[C@H](N)C(=O)O)C(=O)NCC(=O)O [Darinaparsin] (first compound 0.08 µM, partner dose 0.4 µM) | 110 | 140 | 133 | 132 | 62.5 | 126 | 127 | 103 | 175 | 62.5
